Source: PMC9321335 (Pharmaceutics, 2022)

Assay: peptide synthesis

Row | Substance | conjugation yield (conjugation step) | step yield (lipidation step)
1 | DOTA-Lys(palmitoyl-Glu-OH)-3PRGD2 | ~40% | –
2 | Lys(palmitoyl-Glu-OH)-3PRGD2 | – | ~60%
